# Assay results from PubChem BioAssay AID2284359 (EPA ToxCast).
# Inconclusive results, whose numbers are uncertain, are shown with a selection of clear calls. Potencies of inconclusive entries are doubtful fits and often do not repeat. Active and inactive are the calls of the source. The calls were made as follows: active = hit-call score of the fitted dose curve at least 0.9, where 1 is the maximum; inconclusive = response in the unintended direction; inactive = score below 0.9.
# Assay: ATG_M_06_EcoTox2: Attagene TRANS-FACTORIAL EcoTox-2 HepG2 Assay for M06 Transcription Factor (Internal Marker)
# Protocol: ATG_EcoTox2 is a cell-based, multiplexed assay created by modifying the existing Attagene TRANS-FACTORIAL system to include a panel of nuclear receptors from some or all the following species: human (Homo sapiens), african clawed frog (Xenopus laevis), rainbow trout (Oncorhynchus mykiss), japanese medaka (Oryzias latipes), and zebrafish (Danio rerio). The ECOTOX2-FACTORIAL format uses HepG2, a human liver cell line, with measurements taken at 24 hours after chemical dosing in a 24-well plate. ATG_M_06_EcoTox2 is one of 29 assay components calculated in the ATG_EcoTox2 assay. It is designed to make measurements of mRNA induction, a form of inducible reporter, as detected with fluorescence intensity signals by Reverse transcription polymerase chain reaction (RT-PCR) and Capillary electrophoresis technology.The assay endpoint ATG_M_06_EcoTox2 was analyzed in the positive analysis fitting direction relative to DMSO as the negative control and baseline of activity. Using a type of inducible reporter, measures of mRNA for gain-of-signal activity can be used to understand the background control at the transcription factor-level as they relate to the gene. Furthermore, this assay endpoint can be referred to as a secondary readout, because this assay has produced multiple assay endpoints where this one serves a background control function. To generalize the intended target to other relatable targets, this assay endpoint is annotated to the background measurement intended target family, where the subfamily is internal marker.
# Human liver HepG2 cells are transiently transfected with multiple reporter transcription units (MRTUs) in 6-well plates using FuGene 6 reagent (Roche; 3 ml FuGene/1 mg DNA). The MRTU constructs are regulated by a cis-regulating element (promoter). Each RTU expresses a GAL4-UAS that regulates the transcription of a nearby target reporter gene sequence. A major difference between the CIS and TRANS system is that in CIS activities of endogenous TFs are measured, whereas the TRANS assay evaluates changes in activities of exogenous, chimeric NR-Gal4 proteins. […] At the end of 24 hour incubation, total RNA was isolated using TriZol reagent (Invitrogen). The isolated RNA is then reverse-transcribed using oligo(dT) primer and Mo-MLV reverse transcriptase (Invitrogen) with DNAse I (Ambion) treatment for 30 min. The one-tenth of the produced cDNA was amplified by PCR using Taq DNA polymerase (Invitrogen) and two reporter sequence-specific primers. […] The fragments were purified using Qiaquick PCR columns (Qiagen), analyzed on an ABI 3130xL genetic analyzer (Applied Biosystems) with peak positions identified by using a set of X-rhodamine (ROX)-labeled MapMarker1000 molecular weight standards (BioVentures). […]
Compound,AC50,outcome
C[C@@H]1C[C@H]2[C@@H]3CCC4=CC(=O)C=C[C@]4(C)[C@@]3(F)[C@@H](O)C[C@]2(C)[C@@]1(O)C(=O)COP(=O)(O)O,inconclusive: 50 µM,–
Cc1ccc(C)c(OCCCC(C)(C)C(=O)O)c1,inconclusive: 0.00458 µM,–
Cc1nc(-c2ccc(C(F)(F)F)cc2)sc1C(=O)NCc1ccc(OC(C)(C)C(=O)O)cc1,–,inactive
C=C(c1ccc(C(=O)O)cc1)c1cc2c(cc1C)C(C)(C)CCC2(C)C,–,inactive
